Data: PubChem BioAssay AID328 (DTP/NCI, 2004)
The list shows only some results of the screen, not a fair sample: it is rich in T/C values a quarter to a half above the control, in often repeated tests (any T/C) and in doses without a T/C. Further doses and runs are listed elsewhere. T/C gives the treated animals as a percentage of the vehicle group. Some entries give survivors of the animals treated and no T/C: the source holds a T/C of zero for them, seemingly a mark for toxic or unscored doses. Some doses without a T/C left all or most animals alive at the check, yet need not have been tolerated: survival well below the control is almost never listed, so the zero probably covers shortened survival too. Survivors were counted at the toxicity check, usually on the fifth day, unless a day is given; later deaths do not show. Schedules are NCI's codes, read here as Q, the interval in days (D) or hours (H), X, the number of doses. For survival time, the PubChem record calls one and a half times the control and up active, and a quarter to a half above the control has no call in these data; cut-offs in other NCI protocols can differ.

System: BDF1 mice, P388 leukemia ip, median survival T/C
Assay: NCI In Vivo Anticancer Drug Screen. Data for tumor model P388 Leukemia (intraperitoneal) in B6D2F1 (BDF1) mice
Conditions: T/C endpoint: median survival time, higher T/C = longer survival
Procedure, shortened: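 Compound-treated tumour-bearing mice were compared with vehicle-treated controls. Survival was recorded, and the value is the treated-group measurement divided by the control-group measurement (T/C).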

[1] = dose: 400.0 mg/kg/injection, schedule: Q01DX001 (ip), vehicle: saline with Tween-80
[2] = dose: 50.0 mg/kg/injection, schedule: Q01DX009 (ip), vehicle: saline with Tween-80
[3] = dose: 200.0 mg/kg/injection, schedule: Q01DX009 (ip), vehicle: saline with Tween-80

O=C(O)CCSc1ccccc1
survivor count (dose: 100.0 mg/kg/injection, schedule: Q01DX001 (ip), vehicle: saline with Tween-80): 3 of 6
survivor count (dose: 200.0 mg/kg/injection, schedule: Q01DX001 (ip), vehicle: saline with Tween-80): 0 of 6
survivor count [1]: 0 of 6

O=C(CCCCl)CC(O)(C(F)(F)F)C(F)(F)F
survivor count [2]: 6 of 6
survivor count [3]: 6 of 6

Cc1cc(C)c(CCO)c(C)c1
survivor count (dose: 0.37 mg/kg/injection, schedule: Q01DX009 (ip), vehicle: DMSO): 6 of 6
survivor count (dose: 0.75 mg/kg/injection, schedule: Q01DX009 (ip), vehicle: DMSO): 6 of 6
survivor count (dose: 1.5 mg/kg/injection, schedule: Q01DX009 (ip), vehicle: DMSO): 6 of 6
survivor count (dose: 3.0 mg/kg/injection, schedule: Q01DX009 (ip), vehicle: DMSO): 6 of 6
survivor count (dose: 6.0 mg/kg/injection, schedule: Q01DX009 (ip), vehicle: DMSO): 6 of 6
survivor count (dose: 100.0 mg/kg/injection, schedule: Q04DX003 (ip), vehicle: DMSO): 6 of 6

COc1ccc2[nH]c3c(C)c4cc[n+](CCCCCCCC[n+]5ccc6c(C)c7[nH]c8ccc(OC)cc8c7c(C)c6c5)cc4c(C)c3c2c1
T/C (dose: 3.13 mg/kg/injection, schedule: Q04DX003 (ip), vehicle: other): 128 % of control
T/C (dose: 12.5 mg/kg/injection, schedule: Q04DX003 (ip), vehicle: other): 125 % of control
T/C (dose: 25.0 mg/kg/injection, schedule: Q04DX003 (ip), vehicle: other): 128 % of control
survivor count (dose: 50.0 mg/kg/injection, schedule: Q04DX003 (ip), vehicle: other): 3 of 6

Nc1cccnc1
survivor count (dose: 20.0 mg/kg/injection, schedule: Q01DX009 (ip), vehicle: saline): 3 of 6

COc1ccc(CN(C(C)=O)c2cc(C)c([N+](=O)[O-])cc2OC)cc1OC
survivor count (dose: 100.0 mg/kg/injection, schedule: Q04DX003 (ip), vehicle: saline): 6 of 6

O=C1c2ccccc2C(=O)c2c(NCCNCCNCCO)ccc(NCCNCCNCCO)c21
survivor count (dose: 200.0 mg/kg/injection, schedule: Q01DX009 (ip), vehicle: water): 0 of 6

C=CCN(CC=C)P(=O)(N1CC1C)N1CC1C (configuration not stated)
T/C (dose: 0.8 mg/kg/injection, schedule: Q01DX009 (ip), vehicle: saline): 126 % of control
T/C (dose: 1.6 mg/kg/injection, schedule: Q01DX009 (ip), vehicle: saline): 126 % of control

CCCCCCCCCCCCSCCCCSCCCCCCCCCCCC
survivor count (dose: 400.0 mg/kg/injection, schedule: Q01DX001 (ip), vehicle: saline sonified): 6 of 6

CCCOc1cc([N+](=O)[O-])cc([N+](=O)[O-])c1
survivor count [1]: 1 of 6

CC(=O)Nc1ccc([I+]c2ccc([N+](=O)[O-])cc2)cc1
T/C (dose: 35.0 mg/kg/injection, schedule: Q01DX009 (ip), vehicle: saline with Tween-80): 125 % of control
T/C (dose: 50.0 mg/kg/injection, schedule: Q01DX009 (ip), vehicle: Klucel (hydroxypropylcellulose) (HPC)): 127 % of control
T/C [2]: 125 % of control
T/C (dose: 150.0 mg/kg/injection, schedule: Q01DX009 (ip), vehicle: saline with Tween-80): 133 % of control

c1cnc2[nH]cnc2n1
survivor count (dose: 400.0 mg/kg/injection, schedule: Q01DX009 (ip), vehicle: saline): 5 of 6

O=C1C(CC=C(Cl)Cl)=C(OC2OC(CO)C(O)C(O)C2O)C(=O)c2ccccc21 (configuration not stated)
T/C (dose: 12.5 mg/kg/injection, schedule: Q01DX009 (ip), vehicle: saline with Tween-80): 134 % of control
survivor count (dose: 25.0 mg/kg/injection, schedule: Q01DX009 (ip), vehicle: saline with Tween-80): 6 of 6
survivor count [2]: 1 of 6
survivor count (dose: 100.0 mg/kg/injection, schedule: Q01DX009 (ip), vehicle: saline with Tween-80): 0 of 6
survivor count [3]: 0 of 6
